# Values joined by “and” are separate entries in the source; they are usually repeats but may differ in a detail not shown here. Identical values can stand only once. The list shows a part of the results. For some assays here: The source does not settle which construct or isoform was used.
# Sequences of proteins named here, by UniProt entry; tags and fusion partners are left off. A change or cut given only in a name is not applied to a line headed by its entry.
# UniProt Q06330: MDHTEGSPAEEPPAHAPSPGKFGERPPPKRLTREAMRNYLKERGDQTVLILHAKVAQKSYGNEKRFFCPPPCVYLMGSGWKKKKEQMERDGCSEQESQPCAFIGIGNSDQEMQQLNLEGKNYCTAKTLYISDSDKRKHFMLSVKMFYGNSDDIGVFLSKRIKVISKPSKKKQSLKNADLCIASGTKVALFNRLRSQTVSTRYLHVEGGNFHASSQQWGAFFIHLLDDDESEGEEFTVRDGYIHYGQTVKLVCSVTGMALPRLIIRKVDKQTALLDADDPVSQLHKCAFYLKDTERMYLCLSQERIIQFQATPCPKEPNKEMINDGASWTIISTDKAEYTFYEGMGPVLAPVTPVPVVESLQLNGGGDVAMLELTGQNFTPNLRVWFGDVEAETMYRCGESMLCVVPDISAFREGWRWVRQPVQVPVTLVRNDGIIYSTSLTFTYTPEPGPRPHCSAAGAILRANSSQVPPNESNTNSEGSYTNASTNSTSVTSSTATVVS
# Experiments:
# Test in all cases: protein microarray (ProtoArray v5.0), streptavidin-Alexa Fluor 647
# Settings in all cases: 3'-biotin; 20 mM Tris (pH 7.5), 5 mM MgCl2, 100 mM KCl, 0.1% Tween-20, A/T-rich and random oligonucleotide blockers; temperature not stated; high values mean tight binding
# RAB3C (human) = system: RAB3C (human)
# RAB9A = target: T1, RAB9A (UniProt P51151)
# T1 sequence: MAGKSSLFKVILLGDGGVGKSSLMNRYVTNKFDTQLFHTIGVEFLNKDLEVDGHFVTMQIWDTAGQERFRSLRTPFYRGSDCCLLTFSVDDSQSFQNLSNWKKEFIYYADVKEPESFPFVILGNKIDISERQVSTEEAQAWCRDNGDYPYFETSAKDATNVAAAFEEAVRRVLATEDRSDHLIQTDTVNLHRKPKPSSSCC
# RABEP2 (human) = system: RABEP2 (human)
# RABL5 (human) = system: RABL5 (human)
# RAD51AP1 = target: T2, RAD51AP1 (UniProt Q96B01)
# T2 sequence: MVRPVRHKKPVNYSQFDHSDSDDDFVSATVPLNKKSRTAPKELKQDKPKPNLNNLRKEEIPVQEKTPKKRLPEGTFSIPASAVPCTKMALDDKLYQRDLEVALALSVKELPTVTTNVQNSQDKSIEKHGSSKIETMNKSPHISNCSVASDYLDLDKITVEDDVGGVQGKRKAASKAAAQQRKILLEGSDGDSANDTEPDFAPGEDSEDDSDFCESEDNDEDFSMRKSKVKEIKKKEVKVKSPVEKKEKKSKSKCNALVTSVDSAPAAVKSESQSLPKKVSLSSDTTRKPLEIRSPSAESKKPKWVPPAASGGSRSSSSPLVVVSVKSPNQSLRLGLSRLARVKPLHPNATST
# RAP1GDS1 (human) = system: RAP1GDS1 (human)
# RAP2C (human) = system: RAP2C (human)
# RASGRP3 (human) = system: RASGRP3 (human)
# RBM33 (human) = system: RBM33 (human)
# RBM9 (human) = system: RBM9 (human)
# RBPJ = RBPJ (UniProt Q06330)
# RCP9 (human) = system: RCP9 (human)
# RCSD1 (human) = system: RCSD1 (human)
# RDHE2 (human) = system: RDHE2 (human)
# REEP2 = target: T3, REEP2 (UniProt Q9BRK0)
# T3 sequence: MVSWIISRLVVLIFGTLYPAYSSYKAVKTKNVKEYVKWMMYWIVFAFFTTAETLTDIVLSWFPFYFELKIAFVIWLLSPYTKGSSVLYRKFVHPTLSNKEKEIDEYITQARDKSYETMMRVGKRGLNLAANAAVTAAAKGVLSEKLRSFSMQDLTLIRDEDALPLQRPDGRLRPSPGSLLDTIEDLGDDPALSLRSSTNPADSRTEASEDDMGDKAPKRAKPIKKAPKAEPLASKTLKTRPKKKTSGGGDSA
# RFC5 (human) = system: RFC5 (human)
# RFPL3 (human) = system: RFPL3 (human)
# RGS10 (human) = system: RGS10 (human)
# RHCG (human) = system: RHCG (human)
# [1] = system: RING finger protein 122 (human)
sequence,measurement,setting,value
GGTGACAGGGGTATGGGGAGGGG [G4-2 biotinylated (Ct1)],binding signal,RAB3C (human),-0.384 z-score
same,binding signal,RAB9A,-0.383 z-score
same,binding signal,RABEP2 (human),-0.39 z-score
same,binding signal,RABL5 (human),-0.389 z-score
same,binding signal,RAD51AP1,6.79 z-score
same,binding signal,RAP1GDS1 (human),-0.402 z-score and -0.399 z-score
same,binding signal,RAP2C (human),-0.367 z-score
same,binding signal,RASGRP3 (human),-0.384 z-score
same,binding signal,RBM33 (human),-0.367 z-score
same,binding signal,RBM9 (human),-0.387 z-score
same,binding signal,RBPJ,3.07 z-score
same,binding signal,RCP9 (human),-0.383 z-score
same,binding signal,RCSD1 (human),-0.391 z-score
same,binding signal,RDHE2 (human),-0.382 z-score
same,binding signal,REEP2,3.2 z-score
same,binding signal,RFC5 (human),-0.363 z-score
same,binding signal,RFPL3 (human),-0.37 z-score
same,binding signal,RGS10 (human),-0.392 z-score
same,binding signal,RHCG (human),-0.387 z-score
same,binding signal,[1],-0.388 z-score

# — PMC5996148
